Assay results as given in article PMC12040169 (PLOS Biology, 2025).
The other results are listed elsewhere or left out.

Test system: T1, CTL2-GFP (C. trachomatis L2/434/Bu, GFP-expressing)
T1 construct: L2/434/Bu, GFP-expressing
Parameters: species or system HeLa; Intracellular C. trachomatis growth in HeLa cells, bulk GFP fluorescence relative to DMSO
Settings: bulk GFP, single well; 28.5 h, 10 µM; inhibitor

SMILES	% of control remaining [%]
CCOC(=O)c1ccccc1NS(=O)(=O)Cc1ccccc1[N+](=O)[O-] [CBK050594]	88.9703
CN(C)Cc1ncccc1OCCO [CBK001411C]	118.169
COc1cc(OC)c(NC(=O)C(C)Oc2cccc(C)c2)cc1Cl (centres unmarked) [CBK268646]	119.426
COc1cc(CNC2CCCCC2)ccc1OCC(N)=O [CBK263866]	100
Cc1ccc(-c2nnc([C@H]3CCN(C(=O)NCc4ccccc4)C3)o2)cc1 [CBK289411]	126.232
O=c1oc2ccccc2c(NCCCN2CCOCC2)c1[N+](=O)[O-] [CBK261471]	101.228
CCCc1cc(C(=O)N2CCN(c3nccc(OC)n3)CC2)[nH]n1 [CBK304898]	48.3913
COCOc1ccc(-c2nccnc2OC2CCCCC2)cc1 [CBK106917]	122.253
O=C(Nc1ccc(F)cc1)c1cccc(NS(=O)(=O)c2cc(Cl)sc2Cl)c1 [CBK038980]	89.332
Cc1cnc2[nH]c(C3CCCN(C(=O)c4cccnc4)C3)cc2c1 (centres unmarked) [CBK285168]	106.681
Cc1c(C(=O)Nc2ccncc2)nnn1-c1cccc(C(F)(F)F)c1 [CBK107390]	68.0774
O=C(Nc1cc(Br)ccc1O)c1cnn2c(C(F)(F)F)cc(-c3cccs3)nc12 [CBK268190]	106.388
COc1ccc([C@@]23CC[C@@H](NC(=O)c4ccc(F)c(F)c4)C[C@@H]2CN(C)C3)cc1OC [CBK083504T]	139.449
O=C1N=C(Nc2cccc(C(=O)O)c2)S/C1=C/c1cccc(O)c1 [CBK264984]	129.639
CC(=C\C(=O)O)/C(=C/c1ccncc1)C(=O)O [CBK278265N]	87.1921
O=C(Cc1cccnc1)N1CCC(O)(c2cccc(F)c2)CC1 [CBK283537]	99.7828
COc1cccc(NC(=O)NCCc2ccncc2)c1 [CBK270022]	100.687
O=C(O)COCC(=O)NC12CC3CC(CC(C3)C1)C2 [CBK287065]	108.963
CCNC(=O)Nc1ccc(-c2ccc(SC)cc2)c2ccccc12 [CBK083723]	136.336
O=C1CCCCCN1CP(=O)(O)CCc1ccccc1 [CBK262313]	115.61
Cc1nc(CCNC(=O)C2CCN(C(=O)c3ccc(F)cc3)CC2)cs1 [CBK304378]	100.357
O=S(=O)(Nc1ccc2nsnc2c1)c1cccc(C(F)(F)F)c1 [CBK062221]	100.225
Cn1cc(NC(=O)c2ccc(COc3c(F)c(F)cc(F)c3F)o2)c(C(=O)O)n1 [CBK287014]	114.359
CN1CC(=O)N2CCOC(C2)c2cccc(n2)NC(=O)C/C=C/CC2(CCN(c3ncccn3)CC2)C1=O (centres unmarked) [CBK292188]	148.61
c1ccc(-c2nc3cnccn3c2Nc2ccc3c(c2)OCCO3)cc1 [CBK287857]	146.44

SMILES	% of control remaining [%]
NC1CCN(c2nccnc2OCCOc2cccnc2)CC1 [CBK003889F]	137.035
Cc1ccc(OCc2cc(-c3ccco3)on2)c([N+](=O)[O-])n1 [CBK233261]	153.769
O=C(NC(Nc1ncccn1)C(Cl)(Cl)Cl)c1ccccc1 (centres unmarked) [CBK261408]	116.359
O=S(=O)(/N=C(/NS(=O)(=O)c1cccc2ccccc12)c1ccccc1)c1ccccc1 [CBK263105]	101.205
COc1ccc(-c2cnc(NS(C)(=O)=O)c(C(=O)NCc3ccco3)c2)cc1 [CBK076539]	126.68
COc1ccc(-c2cncc(C3CN(Cc4cccc5ncccc45)CCO3)n2)cc1 (centres unmarked) [CBK285947]	116.473
COc1ccc(Cn2nc(NS(=O)(=O)c3ccc(-c4ccon4)s3)c3ccccc32)cc1 [CBK048031]	138.932
Cc1nccn1CC1(O)CCN(C(=O)Cc2cccc(F)c2)CC1 [CBK282184]	117.2
Nc1cc(=O)[nH]c(=O)n1Cc1ccc(Cl)cc1 [CBK288002]	169.486
O=C(NC[C@H]1O[C@@H](CC(=O)N2CCN(c3ccccn3)CC2)[C@H](O)[C@@H]1O)C1CC1 [CBK288904]	113.359
O=C(Oc1cccc2cccnc12)c1ccc(Br)o1 [CBK019461]	101.98
COc1ccc(C(=O)NCC(O)CN2CCOCC2)cc1[N+](=O)[O-] (centres unmarked) [CBK265643]	106.799
O=C(CC1Sc2ccccc2NC1=O)Nc1ccc(C(F)(F)F)cc1 (centres unmarked) [CBK287585]	118.454
COc1cccc(NC(=O)CCS(=O)(=O)c2ccccc2)c1 [CBK270150]	132.061
CC(c1ccc(Cl)cc1)N(CCN(C)C)c1ccccn1 (centres unmarked) [CBK012273F]	131.794
CCNC(=O)Nc1ccc([C@@H](O)[C@H]2COCC(=O)N2CC)cc1 [CBK289696]	118.13
COc1ccc(CCNC(=O)CN2CCCC2Cn2cccn2)cc1 (centres unmarked) [CBK306147]	139.13
COc1cccc(-c2cncc(C3CCCN(Cc4ccc5[nH]ccc5c4)C3)n2)c1 (centres unmarked) [CBK286151]	148.085
CCOC(=O)c1sc2nc(C)cc(C)c2c1N [CBK097355]	119.286
O=C(COc1ccc(S(=O)(=O)NC2CCCCC2)cc1)Nc1ccc2c(c1)OCO2 [CBK265960]	136.27
O=C(Nc1ccccc1N1CCN(C(=O)c2ccc(Cl)cc2)CC1)c1ccc(-c2cc3ccccc3oc2=O)cc1 [CBK267280]	162.613
Oc1cccnc1N1CCNCC1 [CBK045850]	110.519
Clc1ccc(SCc2cccc(CSc3ccc(Cl)c(Cl)c3)n2)cc1Cl [CBK223404]	118.271
Cc1cc(Cl)cc(Cl)c1OCCCc1c(C)n[nH]c1C [CBK025733C]	100.767
O=C(NCc1ccco1)c1nn(-c2nc3ccccc3s2)c2ccccc12 [CBK048482]	154.993

Among those listed so far, 4 have a CF3 group.
SMILES	% of control remaining [%]
Cc1c(C(=O)Nc2ccncc2)nnn1-c1cccc(C(F)(F)F)c1 [CBK107390]	68.0774
O=C(Nc1cc(Br)ccc1O)c1cnn2c(C(F)(F)F)cc(-c3cccs3)nc12 [CBK268190]	106.388
O=S(=O)(Nc1ccc2nsnc2c1)c1cccc(C(F)(F)F)c1 [CBK062221]	100.225
O=C(CC1Sc2ccccc2NC1=O)Nc1ccc(C(F)(F)F)cc1 (centres unmarked) [CBK287585]	118.454
